No constants are given. Whether binding was seen depends on the method and setting. Some binding calls cover weakened binding; strength is not graded here.
Biological target: T1, WDR59, subunit within purified GATOR2 (UniProt Q6PJI9)
T1 sequence: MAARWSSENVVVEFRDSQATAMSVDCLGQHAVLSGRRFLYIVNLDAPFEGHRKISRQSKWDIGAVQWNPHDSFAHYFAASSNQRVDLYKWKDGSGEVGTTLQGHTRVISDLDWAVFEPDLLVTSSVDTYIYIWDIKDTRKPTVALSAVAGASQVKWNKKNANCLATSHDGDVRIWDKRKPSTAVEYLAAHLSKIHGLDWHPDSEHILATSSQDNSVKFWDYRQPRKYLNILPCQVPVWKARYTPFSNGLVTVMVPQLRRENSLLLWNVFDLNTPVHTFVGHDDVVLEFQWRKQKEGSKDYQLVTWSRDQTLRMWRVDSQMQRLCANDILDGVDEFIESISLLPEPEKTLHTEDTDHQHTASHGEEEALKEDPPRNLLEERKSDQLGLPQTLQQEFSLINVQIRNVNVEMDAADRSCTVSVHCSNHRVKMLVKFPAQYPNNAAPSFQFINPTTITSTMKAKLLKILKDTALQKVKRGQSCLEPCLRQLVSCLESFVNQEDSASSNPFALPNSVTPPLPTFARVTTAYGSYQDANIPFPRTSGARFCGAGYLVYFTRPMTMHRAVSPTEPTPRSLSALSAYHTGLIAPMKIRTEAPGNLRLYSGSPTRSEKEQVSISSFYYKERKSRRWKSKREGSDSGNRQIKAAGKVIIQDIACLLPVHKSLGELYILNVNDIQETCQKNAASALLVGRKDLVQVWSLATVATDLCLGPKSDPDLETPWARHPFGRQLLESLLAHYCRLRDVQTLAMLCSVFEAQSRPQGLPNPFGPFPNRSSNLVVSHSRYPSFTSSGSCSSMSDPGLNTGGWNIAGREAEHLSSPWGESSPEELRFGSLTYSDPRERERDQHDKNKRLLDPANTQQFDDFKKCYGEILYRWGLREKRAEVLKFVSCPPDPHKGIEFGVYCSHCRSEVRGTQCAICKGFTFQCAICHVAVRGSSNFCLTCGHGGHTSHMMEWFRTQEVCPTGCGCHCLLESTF
Assay: cryo-EM structure; purified GATOR2 at 0.45 mg/mL with 3-fold molar excess of CASTOR1^apo, 45 minutes on ice, frozen on grids; no Arg; Titan Krios; both purified

binding: binds
B1: MIOS, subunit within purified GATOR2 (natural protein)
chain: MSGTKPDILWAPHHVDRFVVCDSELSLYHVESTVNSELKAGSLRLSEDSAATLLSINSDTPYMKCVAWYLNYDPECLLAVGQANGRVVLTSLGQDHNSKFKDLIGKEFVPKHARQCNTLAWNPLDSNWLAAGLDKHRADFSVLIWDICSKYTPDIVPMEKVKLSAGETETTLLVTKPLYELGQNDACLSLCWLPRDQKLLLAGMHRNLAIFDLRNTSQKMFVNTKAVQGVTVDPYFHDRVASFYEGQVAIWDLRKFEKPVLTLTEQPKPLTKVAWCPTRTGLLATLTRDSNIIRLYDMQHTPTPIGDETEPTIIERSVQPCDNYIASFAWHPTSQNRMIVVTPNRTMSDFTVFERISLAWSPITSLMWACGRHLYECTEEENDNSLEKDIATKMRLRALSRYGLDTEQVWRNHILAGNEDPQLKSLWYTLHFMKQYTEDMDQKSPGNKGSLVYAGIKSIVKSSLGMVESSRHNWSGLDKQSDIQNLNEERILALQLCGWIKKGTDVDVGPFLNSLVQEGEWERAAAVALFNLDIRRAIQILNEGASSEKGDLNLNVVAMALSGYTDEKNSLWREMCSTLRLQLNNPYLCVMFAFLTSETGSYDGVLYENKVAVRDRVAFACKFLSDTQLNRYIEKLTNEMKEAGNLEGILLTGLTKDGVDLMESYVDRTGDVQTASYCMLQGSPLDVLKDERVQYWIENYRNLLDAWRFWHKRAEFDIHRSKLDPSSKPLAQVFVSCNFCGKSISYSCSAVPHQGRGFSQYGVSGSPTKSKVTSCPGCRKPLPRCALCLINMGTPVSSCPGGTKSDEKVDLSKDKKLAQFNNWFTWCHNCRHGGHAGHMLSWFRDHAECPVSACTCKCMQLDTTGNLVPAETVQP
notes: MIOS, subunit of GATOR2; codon optimized synthetic DNA; The MIOS chain of m1, written alone for the pairs that touch in the structure; also called front face MIOS; source: HEK293-GNTI cells, co-expressed with the other GATOR2 subunits, purified as part of GATOR2
